The supplement of paper PMC12578635
± gives the standard deviation of the averaged measurements. This is one part of the list. Most values come without repeats; read them as rough.

test system: RAW 264.7 macrophages infected with S. aureus JE2-lux; test: host macrophage viability (CellTiter-Fluor) relative to DMSO vehicle; higher = more viable host cells; settings: 10 µM; treatment time 4 h; gentamicin 50 µg/ml

| SMILES | host macrophage viability [%] |
| --- | --- |
| O=C(CSc1nc2ccccc2c(=O)[nH]1)Nc1ccc2c(c1)OCCO2 | 92.2 |
| CC(C)c1ccc2nc3sc(C(=O)N4CCOCC4)c(N)c3cc2c1 | 138 |
| COc1ccc(C(NC(=O)c2cnc(SC)nc2)c2ccncc2)cc1 (stereo not drawn) | 111 |
| CN(C(=O)Cc1ccsc1)c1nc2c(s1)CCc1c-2cnn1C | 107 |
| Cc1ccc(S(=O)(=O)NC(C)C(=O)Nc2n[nH]c(Cc3ccccc3)n2)cc1 (stereo not drawn) | 120 |
| CCN(CC)CCNC(=O)c1cnc2c(c(C)nn2-c2ccccc2)c1NCc1ccc(OC)cc1 | 96.1 |
| Cc1ccc(S(=O)(=O)c2c(C(=O)N3CCCCC3)cnc3ccc(Cl)cc23)c(C)c1 | 123 |
| Cc1cc(C)cc(N2CC(C)Cn3c2nc2c3c(=O)n(CC(=O)O)c(=O)n2C)c1 (stereo not drawn) | 126 |
| COC(=O)c1ccc(NC(=O)CSc2nnc(Cc3ccc(C)cc3)c(=O)n2N)cc1 | 114 |
| Cc1c(NS(=O)(=O)c2ccc3c4c(cccc24)C(=O)N3)c(=O)n(-c2ccccc2)n1C | 99.9 ± 8.6 |
| O=C1Nc2ccc(F)cc2/C1=C1/SC(=S)N(CCS(=O)(=O)O)C1=O | 106 |
| O=c1c2scc(-c3ccc(F)cc3)c2ncn1Cc1ccccn1 | 84.4 |
| Cc1cccn2cc(CCNS(=O)(=O)c3cccc([N+](=O)[O-])c3)nc12 | 118 |
| O=C(CCN1CCOCC1)N1N=C(c2ccc(Cl)cc2)CC1c1ccco1 (stereo not drawn) | 107 |
| O=C(COc1ccc(Br)cc1)N/N=C/c1ccccc1 | 134 |
| CCOc1cc(/C=C2/SC(=S)N(NC(=O)c3ccccc3OC)C2=O)ccc1O | 95.7 |
| CC(C)(C)c1nc2ccccc2c2nn(CC(=O)N3CCNC(=O)C3(C)C)c(=O)n12 | 114 |
| CC(=O)N1N=C(c2ccccc2)CC1c1ccc2nccnc2c1 (stereo not drawn) | 106 |
| O=C(CCCS(=O)(=O)c1ccc(F)cc1)Nc1ncnc2sccc12 | 109 |
| COc1cc(/C=C2/SC(=S)N(Nc3ccc([N+](=O)[O-])cc3[N+](=O)[O-])C2=O)ccc1O | 93.5 |
| O=C(Cc1ccc(-c2ccccc2)cc1)Nc1ccc2c(c1)CCC(=O)N2 | 118 |
| CN(C)C(=O)c1csc2nc(-c3ccc(NC(=O)c4ccc(Cl)nc4)cc3)cn12 | 123 |
| CCC(CC)C(=O)N1CC(=O)Nc2ccc(Cl)cc2C1c1ccc(F)cc1 (stereo not drawn) | 120 |
| Cc1nn(C)cc1C(=O)NC1CCN(c2nc3c(c(=O)[nH]2)CCCC3)CC1 | 120 |
| Cc1ccc2nc(-n3nc(C)c4c3NC(=O)CC4c3ccc(F)c(F)c3)sc2c1 (stereo not drawn) | 120 |
| O=C(CSc1nc2c(c(=O)n1-c1ccc(F)cc1)SCC2)NCC1CCCO1 (stereo not drawn) | 101 |

| SMILES | host macrophage viability [%] |
| --- | --- |
| Cc1cc(Cl)ccc1OCC(=O)N/N=C1/C(=O)Nc2ccc(Br)cc21 | 126 |
| Oc1c(C(c2ccco2)N2CCC3(CC2)OCCO3)sc2ncnn12 (stereo not drawn) | 126 |
| CC1C(=O)N2CCCc3cc(NC(=O)COc4ccc5ccccc5c4)cc1c32 (stereo not drawn) | 125 |
| CCOC(=O)c1ccc(NC(=O)CSc2nc(=O)n3cc(C)ccc3n2)cc1 | 108 |
| COc1cc2nc(Nc3cccc(Cl)c3)sc2cc1OC | 107 |
| O=C(CSc1nc2ncccc2o1)NCC1CCCO1 (stereo not drawn) | 124 |
| O=C(Nc1ccccc1Oc1ccccc1)c1ccc2ncsc2c1 | 113 |
| O=C(Cc1cccc2ccccc12)Nc1nnc(-c2ccc3c(c2)OCCO3)o1 | 134 |
| O=C(CSc1ccc2nnc(-c3ccncc3)n2n1)OCc1ccccc1 | 98.3 |
| COc1ccccc1C(=O)N1CCN(c2oc(/C=C/c3ccc(C)cc3)nc2C#N)CC1 | 135 |
| O=C(c1cc(C2CC2)on1)N1CCCC1c1cccs1 (stereo not drawn) | 109 |
| CC1CN(C)CCC1CCc1ccc(NC(=O)Cn2ncc3ccccc3c2=O)cc1 (stereo not drawn) | 144 |
| O=C(NC1CCCCNC1=O)C1CCN(Cc2noc(-c3ccc(F)cc3)n2)CC1 (stereo not drawn) | 111 |
| COc1ccccc1OCC(=O)NCCc1sc(-c2ccc(F)cc2)nc1C | 113 |
| CCOC(=O)c1cc([N+](=O)[O-])sc1NC(=O)c1ccc(S(=O)(=O)N(C)C)cc1 | 92.4 ± 2.9 |
| Clc1ccc2nc(N3CCN(c4nc5ccccc5s4)CC3)sc2c1 | 101 ± 3 |
| CC1CCCN(CCCNC(=O)Cn2cccc2-c2nc(-c3ccc(Cl)cc3)cs2)C1 (stereo not drawn) | 87.3 |
| COc1ccc(-c2nn(CCCC(=O)NCCc3ccc(Cl)cc3)c(=O)c3noc(C)c23)cc1 | 106 |
| CC(CCc1ccccc1)NC(=O)C1CCN(c2ccc3nnc(-c4ccccc4F)n3n2)CC1 (stereo not drawn) | 122 |
| O=C(NNc1nc2c(Cl)cccc2s1)c1c(F)cccc1F | 118 ± 9.1 |
| COc1ccc(N2C(=O)C3N=NN(CC(=O)Nc4ccc(C)cc4C)C3C2=O)cc1Cl (stereo not drawn) | 92.1 |
| COCCCNC(=O)c1cncc(-c2ccc(C)cc2)c1 | 95.1 |
| CC(=O)c1ccc(NC(=O)Nc2c[nH]c3ccccc23)cc1 | 135 |
| CCOc1ccc(-c2noc(CSc3nc4cc5c(cc4c(=O)n3C3CCCC3)OCO5)n2)cc1 | 135 |
| CC(C)(C)c1nc2ccccc2c2nn(CC(=O)NCC3CC3)c(=O)n12 | 133 |
| Cc1c(C)n(-c2cc(F)cc(F)c2)c2ncnc(Cl)c12 | 114 |

| SMILES | host macrophage viability [%] |
| --- | --- |
| COc1cccc(N(CC(=O)NCc2ccc(F)cc2)C(=O)CN2C(=O)COc3ccccc32)c1 | 110 |
| O=C(O)c1cccnc1SCc1cc2c(cc1Cl)OCO2 | 123 |
| CC1C(=O)N2CCCc3cc(NC(=O)C(=O)NCc4cccs4)cc1c32 (stereo not drawn) | 112 |
| Cc1ccc2c(C(O)CN3CCC4(CC3)CC(O)c3ccccc3O4)c(C)[nH]c2c1 (stereo not drawn) | 128 |
| CN(c1cncc(C(=O)NCc2ccco2)c1)S(=O)(=O)c1ccccc1 | 114 |
| NC(=O)c1ccsc1NC(=O)c1ccccc1I | 104 |
| CCCS(=O)(=O)N1CCN(c2cc(N(C)C)nc(C)n2)CC1 | 107 |
| Cc1cc(C)c2sc(N3CCN(c4ccccc4)CC3)nc2c1 | 103 ± 8.7 |
| Cc1onc(-c2ccncc2)c1C(=O)NCC(c1ccc(F)cc1)N1CCCC1 (stereo not drawn) | 110 |
| O=C(c1ccco1)N(CCCn1ccnc1)c1nc2ccc(Br)cc2s1 | 100 |
| O=c1[nH]c(=O)c2cc(S(=O)(=O)Nc3cccc(-c4ccc(F)cc4)c3)ccc2[nH]1 | 110 |
| Cc1sc(NC(=O)CN(Cc2ccccc2)C(=O)c2ccco2)c(C(N)=O)c1C | 109 |
| Cc1ccc(C(=O)NC2CC3CCC(C2)N3C(=O)Nc2ccccc2)cc1 (stereo not drawn) | 107 |
| Cn1c2c(c(=O)n(C)c1=O)C(c1ccccc1Br)C1=C(CCCC1=O)N2 (stereo not drawn) | 99.4 |
| Cc1ccc(NC(=O)CSc2ccnc3c2c(=O)n(C)c(=O)n3C)cc1Cl | 124 |
| Cc1ccc2oc(SCc3noc(CCC(=O)Nc4nncs4)n3)nc2c1 | 117 |
| COc1ccccc1NC(=O)CCCn1c(=S)[nH]c2ccccc2c1=O | 119 |
| COc1ccc(-c2nc3c4c(C)c(C)n(C5CCCCC5)c4ncn3n2)cc1 | 92.3 |
| Cc1nnc(SCC(=O)N2CCc3ccccc32)[nH]c1=O | 120 |
| Cc1nn(-c2ccccc2)c2sc(C(=O)NCCc3ccccc3)cc12 | 109 |
| O=C(O)c1cccnc1SC1CC(=O)N(CCc2ccccc2)C1=O (stereo not drawn) | 129 |
| Cn1cc(C(=O)Nc2nccs2)c2nn(-c3ccccc3)c(=O)c-2c1 | 112 |
| COc1ccc(Cl)cc1NC(=O)CSC1=NS(=O)(=O)c2cc(F)ccc2N1 | 119 |
| COc1ccc(NC(=O)CC2SC(=N)NC2=O)cc1Cl (stereo not drawn) | 138 |
| O=C(COC(=O)c1ccc2ccccc2n1)c1ccc(Cl)c(Cl)c1 | 111 |
| N#Cc1c(N)nc(SCC(=O)c2ccc(Br)cc2)c(C#N)c1-c1cccs1 | 133 |

Individual results from the results shown.
Entry of O=C(COC(=O)c1ccc2ccccc2n1)c1ccc(Cl)c(Cl)c1 under host macrophage viability [%]: 111
Entry of COc1ccccc1NC(=O)CCCn1c(=S)[nH]c2ccccc2c1=O under host macrophage viability [%]: 119
Entry of Cn1c2c(c(=O)n(C)c1=O)C(c1ccccc1Br)C1=C(CCCC1=O)N2 (stereo not drawn) under host macrophage viability [%]: 99.4
Entry of Cc1ccc2c(C(O)CN3CCC4(CC3)CC(O)c3ccccc3O4)c(C)[nH]c2c1 (stereo not drawn) under host macrophage viability [%]: 128

Following part.

| SMILES | host macrophage viability [%] |
| --- | --- |
| Cc1ccc2c(c1)C(O)(CC(=O)c1ccc(C)s1)C(=O)N2 (stereo not drawn) | 122 |
| Clc1ccccc1-n1cc(-c2ccccc2)c2c(NCc3ccco3)ncnc21 | 120 |
| COc1ccc(Nc2ncnc3sc(C(=O)O)c(C)c23)c(OC)c1 | 112 |
| O=C(c1ccccc1)c1c2c3c(ccc(S(=O)(=O)O)c3[nH]c1=O)C(=O)c1ccccc1-2 | 88.3 |
| O=C(Nc1nc2ccc3ccccc3c2s1)c1coc2ccccc2c1=O | 110 ± 8.5 |
| Clc1ccc2[nH]c3nc(SCc4nnc(-c5ccccc5)o4)nnc3c2c1 | 110 |
| C=CCOc1ccccc1NC(=O)c1[nH]nc2c1CCCCC2 | 123 |
| O=C(CCCc1ccccc1)Nc1c(C(=O)Nc2ccc3c(c2)OCCO3)oc2ccccc12 | 114 |
| CCOc1cccc(-c2cc(C(=O)N/N=C/c3ccccn3)[nH]n2)c1 | 121 |
| COc1ccc(CCn2nc(-c3cccnc3)oc2=O)cc1 | 120 |
| Cc1ccccc1OCC(=O)Nc1c(C(=O)Nc2ccc([N+](=O)[O-])cc2)oc2ccccc12 | 111 ± 17 |
| Cc1ccc(Cn2c(=O)c3nc(C(=O)NCc4ccco4)nn3c3ccc(C)cc32)cc1 | 133 |
| Cc1ccc(S(=O)(=O)Nc2ccc(O)c3ncccc23)cc1 | 116 |
| COc1ccc(CCNC(=O)c2cc(-c3ccc(F)cc3)nc3[nH]nc(-c4ccccc4)c23)cc1OC | 114 |
| COc1ccc(CCNc2ncnc(N)c2[N+](=O)[O-])cc1OC | 125 |
| CSc1cccc(NC(=O)Cn2cccc2-c2nc(-c3ccccc3)cs2)c1 | 98 |
| O=C(CSc1nnc2n(Cc3ccccc3F)c3ccccc3n12)NC1CCCCC1 | 116 |
| Cc1ccc(CCC(=O)Nc2ccc(Cl)c([N+](=O)[O-])c2)o1 | 113 |
| CCOC(=O)c1cc(C)nc2c1c(=O)n(Cc1nc(-c3ccc(Cl)cc3)oc1C)c(=O)n2C | 116 |
| CCC(C)NC(=O)CSc1nc2cc(C)c(C)cc2cc1C#N (stereo not drawn) | 101 |
| O=C(O)CCN1C(=O)C2C3CC(C2C1=O)C1C(c2ccc(Cl)cc2)c2sc(=O)[nH]c2SC31 (stereo not drawn) | 114 |
| O=C(NCCCn1ccnc1)c1ncoc1-c1ccccc1C(F)(F)F | 119 |
| Cc1ccc(Cn2nnc(C(=O)O)c2C(=O)O)cc1 | 125 |
| CCc1cccc(C)c1NC(=O)Cn1c(=O)cc(C(F)(F)F)c2c(C)nn(C)c21 | 99.2 |
| COC(=O)c1c(-c2cccc(F)c2)noc1NC1CCCc2ccccc21 (stereo not drawn) | 111 |
